Reference: patent US20210228853A1, “DRUG DELIVERY METHODS TARGETING THE LYMPHATIC SYSTEM” (Sorrento Therapeutics, Inc., priority 2018, published 2021)
At least one read-out could not be matched to a standard name with certainty.

How the values were obtained:
[1] = Etanercept pharmacokinetics in porcine model by route of administration; type: in vivo, Yorkshire pig; details: Sofusa delivery vs subcutaneous injection
[2] = Etanercept pharmacokinetics in rat serum by route of administration (ELISA); type: in vivo, Sprague Dawley rats; details: rat model; Sofusa delivery vs subcutaneous injection
Procedure: Methods and procedures for some of these experiments have been adapted from Aldrich, et al., Arthritis Res. Ther., (2017), 19:116 (DOI 10.1186/s13075-017-1323-z; Open Access) which is incorporated by reference herein in its entirety for all purposes.
In order to characterize differences in etanercept delivery by the different routes of administration, normal rats were used to determine the PK profiles following a single dose of 1 mg etanercept in 100 μL delivered via Sofusa™ (n=6), conventional IV (in the tail vein, n=6), SC (dorsolateral injection at the same site as the Sofusa™ application, n=4), or ID injections (symmetrical dorsolateral injections 2×50 uL for a total dose of 1 mg etanercept, n=6). Other than the Sofusa™ delivery, all administration was conducted using a 31-gauge needle. At 2, 4, 8, 12, 24, and 36 h after administration, animals were anesthetized under isoflurane, and 200 μL of blood was drawn from the jugular vein. The etanercept concentration in serum was quantified using the Etanercept ELISA Kit (ABIN: 1540251) (Matriks Biotechnology Co., LTD., Ankara, Turkey). Optical density was measured at 450 nm using Thermo Scientific Multiskan EX (Thermo Fisher Scientific, Waltham, Mass., USA).

## etanercept
[1]
  pharmacokinetic profiles (bioavailability and biodistribution) compared to subcutaneous injection: significantly superior pharmacokinetic profiles
[2]
  pharmacokinetic profiles (bioavailability and biodistribution) compared to subcutaneous injection: significantly superior pharmacokinetic profiles
